Measured data: PubChem BioAssay AID1259254 (NCATS, 2017)
Test: 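Gene knock-downs that lead to re-replication, shown by excess G2 DNA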 (primary screen). Cells: human HCT116 colorectal cancer cells. Reagent: single siRNA against human genes. Time to read-out: 3 days. Measurement: 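Imaged Hoechst DNA stain sorts each cell into a cycle phase by DNA amount; per plate, G2 fraction set to 0% for non-targeting and 100% for GMNN siRNA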. Scale: G2 robust z-score and G2 cells, % of GMNN control: higher = more G2 cells, more excess DNA replication; raw share of cells in G2: higher = larger share of cells with G2 DNA content. Rule for the call: 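Active siRNAs have a G2 robust z of 5 or more median absolute deviations over the median, which in these data means about 38% or higher of GMNN control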.
This is an unselected part of about 59,000 reagents tested. In the full data, about 1,550 (2.6%) are marked active. 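G2 share is only a proxy for re-replication; each gene was hit by three separate siRNAs, and active genes were retested.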 Raw values vary from plate to plate and are shown uncorrected. Reagents against one gene are numbered here. No sequences are given here. The record does not give: the amount of reagent.

gene | reagent no. | G2 robust z-score | G2 cells, % of GMNN control | raw share of cells in G2 (%) | activity call
PURG | 1 | -1.15 | -5.15 | 3.83 | inactive
PURG | 2 | -0.425 | -0.0234 | 4.18 | inactive
PURG | 3 | -0.417 | 0.0358 | 4 | inactive
PRSS57 | 1 | -0.448 | -0.184 | 4.84 | inactive
PRSS57 | 2 | 0.117 | 3.79 | 5.32 | inactive
PRSS57 | 3 | -1.07 | -4.57 | 3.97 | inactive
MEGF9 | 1 | 0.232 | 4.6 | 6.91 | inactive
MEGF9 | 2 | 0.502 | 6.5 | 5.97 | inactive
MEGF9 | 3 | -0.45 | -0.195 | 5.19 | inactive
PAMR1 | 1 | 0.372 | 5.59 | 7.51 | inactive
PAMR1 | 2 | 0.201 | 4.38 | 6.46 | inactive
PAMR1 | 3 | 0.817 | 8.72 | 7.16 | inactive
ADAMTS9 | 1 | -0.9 | -3.37 | 4.38 | inactive
ADAMTS9 | 2 | -0.604 | -1.28 | 4.45 | inactive
ADAMTS9 | 3 | -0.457 | -0.246 | 3.82 | inactive
SLC5A5 | 1 | 1.59 | 14.2 | 9.4 | inactive
SLC5A5 | 2 | -0.562 | -0.988 | 3.63 | inactive
SLC5A5 | 3 | -0.427 | -0.0377 | 5.67 | inactive
CAMK1 | 1 | -0.385 | 0.258 | 5.67 | inactive
CAMK1 | 2 | -0.313 | 0.767 | 5.47 | inactive
CAMK1 | 3 | 0.541 | 6.77 | 5.85 | inactive
UBXN2B | 1 | -0.605 | -1.29 | 3.69 | inactive
UBXN2B | 2 | -1.07 | -4.54 | 1.66 | inactive
UBXN2B | 3 | -0.478 | -0.397 | 2.44 | inactive
NUDT15 | 1 | 0.0728 | 3.48 | 5.86 | inactive
NUDT15 | 2 | -0.0591 | 2.55 | 5.2 | inactive
NUDT15 | 3 | -0.522 | -0.706 | 2.91 | inactive
METTL27 | 1 | 4.56 | 35.1 | 16.2 | inactive
METTL27 | 2 | 1.1 | 10.7 | 6.56 | inactive
METTL27 | 3 | 0.346 | 5.4 | 4.47 | inactive
ADRM1 | 1 | 3.03 | 24.3 | 14.5 | inactive
ADRM1 | 2 | -0.17 | 1.77 | 4.87 | inactive
ADRM1 | 3 | -0.215 | 1.45 | 3.72 | inactive
RILPL2 | 1 | 0.584 | 7.08 | 6.14 | inactive
RILPL2 | 2 | -0.586 | -1.16 | 2.57 | inactive
RILPL2 | 3 | -0.0591 | 2.55 | 3.57 | inactive
GRIK5 | 1 | 4.64 | 35.6 | 18.2 | inactive
GRIK5 | 2 | 5.7 | 43.1 | 19.3 | active
GRIK5 | 3 | -0.827 | -2.85 | 3.26 | inactive
TEKT4 | 1 | 0.858 | 9 | 6.85 | inactive
TEKT4 | 2 | -0.209 | 1.49 | 3.37 | inactive
TEKT4 | 3 | -1.08 | -4.61 | 1.46 | inactive
LOC727916 (retired record) | 1 | 0.332 | 5.31 | 5.56 | inactive
LOC727916 (retired record) | 2 | 0.199 | 4.37 | 4.41 | inactive
LOC727916 (retired record) | 3 | 0.6 | 7.19 | 6.32 | inactive
ZNF57 | 1 | -0.95 | -3.72 | 1.81 | inactive
ZNF57 | 2 | 0.117 | 3.79 | 4.48 | inactive
ZNF57 | 3 | -0.409 | 0.0916 | 3.56 | inactive
TNFRSF4 | 1 | 0.102 | 3.69 | 5.69 | inactive
TNFRSF4 | 2 | -0.0746 | 2.44 | 5.17 | inactive
TNFRSF4 | 3 | 0.949 | 9.65 | 9.67 | inactive
POLDIP3 | 1 | -0.813 | -2.75 | 4.28 | inactive
POLDIP3 | 2 | -0.505 | -0.588 | 4.57 | inactive
POLDIP3 | 3 | 1.52 | 13.7 | 9.15 | inactive
CRYGD | 1 | 0.965 | 9.76 | 7.66 | inactive
CRYGD | 2 | 0.621 | 7.34 | 6.4 | inactive
CRYGD | 3 | 6.69 | 50.1 | 28.8 | active
SPATA33 | 1 | -0.543 | -0.855 | 3.75 | inactive
SPATA33 | 2 | 0.57 | 6.98 | 5.41 | inactive
SPATA33 | 3 | -0.0877 | 2.35 | 2.51 | inactive
DOCK10 | 1 | -0.851 | -3.02 | 3.07 | inactive
DOCK10 | 2 | 3.19 | 25.4 | 17.6 | inactive
DOCK10 | 3 | 1.52 | 13.7 | 9.34 | inactive
MAGEB16 | 1 | -0.409 | 0.0873 | 2.61 | inactive
MAGEB16 | 2 | -0.367 | 0.382 | 4.32 | inactive
MAGEB16 | 3 | 1.01 | 10.1 | 6.31 | inactive
SOWAHB | 1 | -0.245 | 1.24 | 4.41 | inactive
SOWAHB | 2 | 0.627 | 7.38 | 6.49 | inactive
SOWAHB | 3 | -0.657 | -1.65 | 3.52 | inactive
